Some results were stated once for a whole list of compounds, not compound by compound.
Experiments:
Septoria tritici = assay: Preventative control of leaf blotch on wheat (greenhouse test); format: in vivo; conditions: 300 ppm aqueous preparation sprayed to run-off one day before inoculation (preventative); wheat seedlings; assessed after 4 weeks; untreated plants 90% infected
Botrytis cinerea = assay: Preventative control of grey mold on leaves of green pepper (greenhouse test); format: in vivo; conditions: 300 ppm aqueous preparation sprayed to run-off one day before inoculation (preventative); green pepper seedlings; assessed after 5 days; untreated plants 100% infected

| SMILES | infection (extent of fungal attack on the leaves, visually assessed as % diseased leaf area) (Septoria tritici) | infection (extent of fungal attack on the leaves, visually assessed as % diseased leaf area) (Botrytis cinerea) |
| --- | --- | --- |
| CC(C)(C)C(O)(CCCCCOc1ccccc1Cl)Cn1nc[nH]c1=S (stereo not drawn) [Example 16, 1-[2-tert-butyl-7-(2-chlorophenoxy)-2-hydroxyheptyl]-1H-1,2,4-triazole-5(4H)-thione] | at most 15% | – |
| CC(C)(C)C(O)(CCCCCOc1ccc(Cl)cc1)Cn1nc[nH]c1=S (stereo not drawn) [Example 18, 1-[2-tert-butyl-7-(4-chlorophenoxy)-2-hydroxyheptyl]-1H-1,2,4-triazole-5(4H)-thione] | at most 15% | – |
| CC(C)(C)C(O)(CCCCOc1ccccc1Cl)Cn1nc[nH]c1=S (stereo not drawn) [Example 4, 1-[2-tert-Butyl-6-(2-chlorophenoxy)-2-hydroxyhexyl]-1H-1,2,4-triazole-5(4H)-thione] | at most 15% | – |
| Cc1ccc(OCCCCCC(O)(Cn2nc[nH]c2=S)C(C)(C)C)cc1 (stereo not drawn) [Example 20, 1-[2-tert-butyl-7-(4-methylphenoxy)-2-hydroxyheptyl]-1H-1,2,4-triazole-5(4H)-thione] | – | at most 10% |
| CC(C)(C)C(O)(CCCOc1ccc(F)cc1F)Cn1nc[nH]c1=S (stereo not drawn) [Example 7, 1-[2-tert-butyl-5-(2,4-difluorophenoxy)-2-hydroxypentyl]-1H-1,2,4-triazole-5(4H)-thione] | at most 15% | – |
| CC(C)(C)C(O)(CCCCCOc1ccc(F)cc1F)Cn1nc[nH]c1=S (stereo not drawn) [Example 13, 1-[2-tert-butyl-7-(2,4-difluorophenoxy)-2-hydroxyheptyl]-1H-1,2,4-triazole-5(4H)-thione] | at most 15% | – |
| CC(C)(C)C(O)(CCCCOc1ccc(F)cc1F)Cn1nc[nH]c1=S (stereo not drawn) [Example 3, 1-[2-tert-Butyl-6-(2,4-difluorophenoxy)-2-hydroxyhexyl]-1H-1,2,4-triazole-5(4H)-thione] | at most 15% | – |
| CC(C)(C)C(O)(CCCCOc1ccc(Cl)cc1Cl)Cn1nc[nH]c1=S (stereo not drawn) [Example 5] | at most 15% | – |
| CC(C)(C)C(O)(CCCOc1ccc(Cl)cc1F)Cn1nc[nH]c1=S (stereo not drawn) [Example 10, 1-[2-tert-butyl-5-(4-chloro-2-fluorophenoxy)-2-hydroxypentyl]-1H-1,2,4-triazole-5(4H)-thione] | at most 15% | – |
| CC(C)(C)C(O)(CCCCCOc1ccc(Cl)cc1Cl)Cn1nc[nH]c1=S (stereo not drawn) [Example 19, 1-[2-tert-butyl-7-(2,4-dichlorophenoxy)-2-hydroxyheptyl]-1H-1,2,4-triazole-5(4H)-thione] | – | at most 10% |
| CC(C)(C)C(O)(CCCCCOc1cccc(Cl)c1)Cn1nc[nH]c1=S (stereo not drawn) [Example 17, 1-[2-tert-butyl-7-(3-chlorophenoxy)-2-hydroxyheptyl]-1H-1,2,4-triazole-5(4H)-thione] | – | at most 10% |
| CC(C)(C)C(O)(CCCCOc1cccc(Cl)c1)Cn1nc[nH]c1=S (stereo not drawn) [Example 6, 1-[2-tert-Butyl-6-(3-chlorophenoxy)-2-hydroxyhexyl]-1H-1,2,4-triazole-5(4H)-thione] | at most 15% | – |
| CC(C)(C)C(O)(CCCCCOc1ccc(F)cc1)Cn1nc[nH]c1=S (stereo not drawn) [Example 12, 1-[2-tert-butyl-7-(4-fluorophenoxy)-2-hydroxyheptyl]-1H-1,2,4-triazole-5(4H)-thione] | at most 15% | at most 10% |
| CC(C)(C)C(O)(CCCOc1ccc(Cl)cc1Cl)Cn1nc[nH]c1=S (stereo not drawn) [Example 9, 1-[2-tert-butyl-5-(2,4-dichlorophenoxy)-2-hydroxypentyl]-1H-1,2,4-triazole-5(4H)-thione] | at most 15% | – |
